Reference: article PMC10704561, “Multi-Photon-Sensitive Chromophore for the Photorelease of Biologically Active Phenols” (ACS Chemical Neuroscience, 2023)

Assays:
[1] = One-photon excitation (1PE) photolysis with 365 nm LED, HPLC quantification; format: physicochemical; settings: for yield (chemical yield of released compounds) / Φu (quantum yield of photolysis): 1PE 365 nm, 0.1 mM in KMOPS pH 7.2 (3d, 6c: 10 or 20% CH3CN added); for sensitivity (ε Φu): 365 nm, KMOPS pH 7.2
Method: A 0.1 mM solution (3 mL) of each protected phenol in KMOPS buffer (10 or 20% CH3CN was used as a cosolvent for 3d and 6c) was placed in a 3 mL quartz cuvette along with a stirring bar. The solution was irradiated with stirring using a 365 nm LED lamp (Cairn OptoLED Lite). At different time intervals, 80 μL aliquots of the solution were taken out and analyzed by uHPLC (Agilent 1290 Infinity series), monitoring the AUC at 320 nm (Supporting Information, HPLC Data). An external standard calibration method of quantification was used for the calibration of the samples. The experiments were repeated in sets of three. A gradient elution with a flux rate of 0.3 mL/min using a mobile phase comprising A = 0.1% trifluoroacetic acid in water and B = acetonitrile (starting from 5% B to 100% over 10 min and re-equilibrating to 5% B before the next run) was used for the separations. A comparison of the AUC with the calibration curves of the substrates (obtained from known concentration) determined the percentages of the remaining starting materials. The percentages of the remaining starting materials were plotted versus time. The time to 90% of decomposition of the substrate (t90% values) was obtained by fitting a single exponential decay curve to the data using DeltaGraph (Red Rock Software). The following equation was used to calculate the quantum yield (Φu) of each photolysis reaction:[42],[47],[56],[57] Φu = (I σ t90%)^−1, where I is the irradiation intensity (determined by potassium ferrioxalate actinometry and measured in Einstein cm^–2 s^–1),[58] σ is the decadic extinction coefficient (1000 × ε) at 365 nm, and t90% is the time required to consume 90% of the starting material. See Supporting Information Table S1 for the I, σ, and t90% data.

[2] = Two-photon excitation (2PE) photolysis with Ti:sapphire laser, fluorescein as external standard; format: physicochemical; set-up: key to δu 720 (two-photon uncaging action cross section) / δu 740 (two-photon uncaging action cross section): np: No photolysis; settings: for δu 740 (two-photon uncaging action cross section): 2PE 740 nm; for δu 740 (two-photon uncaging action cross section) / δu 720 (two-photon uncaging action cross section): KMOPS pH 7.2, GM = 10^–50 cm^4 s/photon; for δu 720 (two-photon uncaging action cross section): 2PE 720 nm
[3] = set-up: method as in PMID 32077679; settings: cited from earlier work

| Structure (SMILES) | yield (chemical yield of released compounds) [1] | Φu (quantum yield of photolysis) [1] | sensitivity (ε Φu) [1] | δu 740 (two-photon uncaging action cross section) [2] | δu 720 (two-photon uncaging action cross section) [2] | yield (chemical yield of released compounds) ([3]; 1PE) | Φu (quantum yield of photolysis) ([3]; 1PE) | sensitivity (ε Φu) [3] | fold higher δu than CyHQ-O-DA ([2]; 1.49 GM at 720 nm versus 0.24 GM for CyHQ-O-DA) | photolysis achieved under 2PE ([2]; 720 nm, within 30 min of irradiation) | fold enhancement of δu compared to CyHQ-O-DA ([2]; 740 nm) | δu 720 (two-photon uncaging action cross section) ([2]; listed as MeO-CyHQ-O-RTG) |
| --- | --- | --- | --- | --- | --- | --- | --- | --- | --- | --- | --- | --- |
| Cc1cc(COc2cc(CCN)ccc2O)nc2c(C#N)c(O)ccc12.O=C(O)C(F)(F)F [3a, 2-(3-((8-Cyano-7-hydroxy-4-methylquinolin-2-yl)methoxy)-4-hydroxyphenyl)ethan-1-aminium 2,2,2-trifluoroacetate] | 46% | 0.25 | 1235 | 0.50 GM | – | – | – | – | – | – | – | – |
| N#Cc1c(O)ccc2c(N3CCOCC3)cc(COc3cc(CCN)ccc3O)nc12.O=C(O)C(F)(F)F [3b, 2-(3-((8-Cyano-7-hydroxy-4-morpholinoquinolin-2-yl)methoxy)-4-hydroxyphenyl)ethan-1-aminium 2,2,2-trifluoroacetate] | 54% | 0.35 | 1728 | 0.44 GM | – | – | – | – | – | – | – | – |
| CCCCCCCCC(=O)NCc1ccc(OCc2cc(OC)c3ccc(O)c(C#N)c3n2)c(OC)c1 [6c, N-(4-((8-Cyano-7-hydroxy-4-methoxyquinolin-2-yl)methoxy)-3-methoxybenzyl)nonanamide] | 63% | 0.51 | 1731 | 0.85 GM | 1.36 GM | – | – | – | – | – | – | – |
| N#Cc1c(O)ccc2ccc(COc3cc(CCN)ccc3O)nc12 [CyHQ-O-DA] | – | – | – | – | – | 67% | 0.19 | 990 | – | – | – | – |
| Cc1ccc(-c2cc(COc3cc(CCN)ccc3O)nc3c(C#N)c(O)ccc23)cc1.O=C(O)C(F)(F)F [3d, 2-(3-((8-Cyano-7-hydroxy-4-(p-tolyl)quinolin-2-yl)methoxy)-4-hydroxyphenyl)ethan-1-aminium 2,2,2-trifluoroacetate] | 54% | 0.07 | 337 | 0.53 GM | – | – | – | – | – | – | – | – |
| COc1cc(-c2cc(COc3cc(CCN)ccc3O)nc3c(C#N)c(O)ccc23)cc(OC)c1OC.O=C(O)C(F)(F)F [3e, 2-(3-((8-Cyano-7-hydroxy-4-(3,4,5-trimethoxyphenyl)quinolin-2-yl)methoxy)-4-hydroxyphenyl)ethan-1-aminium 2,2,2-trifluoroacetate] | 40% | 0.03 | 142 | could not be executed; also recorded: np ^i | – | – | – | – | – | – | – | – |
| COc1cc(COc2ccc(CCN)cc2O)nc2c(C#N)c(O)ccc12.O=C(O)C(F)(F)F [3c, 2-(4-((8-Cyano-7-hydroxy-4-methoxyquinolin-2-yl)methoxy)-3-hydroxyphenyl)ethan-1-aminium 2,2,2-trifluoroacetate] | 56% | 0.36 | 2045 | 0.85 GM | 1.49 GM | – | – | – | 6 fold | up to 28% | 3.5 fold | – |
| C=CCc1ccc(OCc2cc(OC)c3ccc(O)c(C#N)c3n2)c(OC)c1 [7c, 2-((4-Allyl-2-methoxyphenoxy)methyl)-7-hydroxy-4-methoxyquinoline-8-carbonitrile] | 44% | 0.27 | 2047 | 0.75 GM | 1.31 GM | – | – | – | – | – | – | – |
| COc1cc(COc2ccc3[nH]cc(CCN)c3c2)nc2c(C#N)c(O)ccc12.O=C(O)C(F)(F)F [4c, 2-(5-((8-Cyano-7-hydroxy-4-methoxyquinolin-2-yl)methoxy)-1H-indol-3-yl)ethan-1-aminium 2,2,2-trifluoroacetate] | 31% | 0.40 | 2168 | 1.01 GM | 1.61 GM | – | – | – | – | – | – | – |
| CCCN(CCc1cccs1)[C@@H]1CCc2c(cccc2OCc2cc(OC)c3ccc(O)c(C#N)c3n2)C1 [5c, (R)-7-Hydroxy-4-methoxy-2-(((6-(propyl(2-(thiophen-2-yl)ethyl)amino)-5,6,7,8-tetrahydronaphthalen-1-yl)oxy)methyl)quinoline-8-carbonitrile] | 13% | 0.12 | 278 | np ^i | np ^i | – | – | – | – | – | – | did not undergo photorelease |

Entries after “also recorded” stand apart in the source; their conditions may differ. Where two headings read alike, the source gives them in different places.
